The nature of this assay: qHTS Assay to Find Inhibitors of Chronic Active B-Cell Receptor Signaling. As to conditions: ABC-DLBCL IkBa-CBG/CBR reporter, luminescence ratio (green luciferase fused to IkBa over red control in TMD8 lymphoma cells), 4 h. The method in brief: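 Cell line TMD8 (human ABC DLBCL), stably expressing tet-inducible CBG68-IkBa fusion and CBR; IMDM/0.5% FBS; cpd up to 46 uM; dox induction, 4 h, 37C/5% CO2; dual luminescence; green/red ratio; MG132 control.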
(In general: qHTS replaces the single test concentration by a dilution series.)

[1] abbreviates: measured here: CBR red luminescence, cell number.
The mark [2] stands for this setting: measured here: IkBa-CBG green luminescence.

The structures appear in SMILES notation. Some of the results follow. These are further read-outs of the screen, such as a control signal, another cell line or another target. No call is given for them. The list favours compounds with an active or inconclusive main result. The note in brackets gives the kind of curve behind each potency; many fits are weak.

As to `COc1ccccc1Nc1nc(N)nc(-c2oc3ccccc3c2C)n1`, under setting [1], the AC50 was 0.82 µM [falling, full curve, poor fit].

Take `O=C(Nc1ccc(N2CCOCC2)cc1)c1cc(F)c(F)cc1Cl`: the AC50 under setting [1] was 32.6 µM [rising, partial curve, poor fit]. Consider `O=C(NC1C=CS(=O)(=O)C1)c1sc2ccccc2c1Cl` (configuration not stated), for which the concentration at half-maximal activity (AC50) under setting [1] is 7.08 µM [falling, partial curve]. Same read-out and setting: under `O=[N+]([O-])c1c(Nc2cccc(O)c2)cc(Cl)c2nonc12` stands 35.5 µM [falling, single point]; under `COc1ccccc1Oc1ccc(N/C=C/C(=O)c2ccco2)cc1`, 35.5 µM [falling, single point]. Still for that read-out and setting: under `COCCn1c(SCC(=O)N2CCC(C)CC2)nc2c([nH]c3ccccc32)c1=O` stands 1.41 µM [falling, partial curve, poor fit]; under `CCN(CC)C(=O)C(=O)Nc1cc(C(F)(F)F)ccc1Cl`, 2.91 µM [rising, single point]; under `CCCN(C(=O)c1ccccc1N)c1c(C)n(C)n(-c2ccccc2)c1=O`, 11.2 µM [rising, partial curve, poor fit]. Same read-out and setting: under `CN(C)c1ccc(NC(=O)c2ccc([N+](=O)[O-])cc2Cl)cc1` stands 1.46 µM [rising, full curve]; under `CC(=O)c1ccc(-c2csc(N3CCC(C(N)=O)CC3)n2)cc1`, 7.31 µM [rising, partial curve]. Consider `O=c1cc(-c2ccc([N+](=O)[O-])cc2)nc2cc(-c3ccc(Cl)cc3)[nH]n12`, for which, under setting [1], the AC50 is 0.461 µM [falling, full curve].

Regarding `COc1ccc(NC(=O)c2ccco2)cc1NC(=O)c1cc(Br)ccc1Cl`, under setting [1], the AC50 was 2.24 µM [rising, partial curve]. Still for that read-out and setting: for `O=C(O)c1ccccc1CSc1nc2ccccc2s1` the value was 35.5 µM [falling, single point]; for `FC(F)(F)c1cc(NC2CCCCC2)ccn1`, 10 µM [falling, partial curve, poor fit]; for `CCCOc1ccc(CC(=O)N/N=C\c2ccc(F)cc2)cc1`, 35.5 µM [rising, single point]. Still for that read-out and setting: for `COc1ccc(Nc2nc(N)c3ccccc3n2)c(OC)c1` the value was 8.91 µM [falling, partial curve]; for `Cc1cccc2cc3c(N)c(C(=O)N4CCc5ccccc54)sc3nc12`, 2.06 µM [falling, full curve].

For `O=C(Nc1ccc2nc(-c3cccnc3)[nH]c2c1)C12CC3CC(CC(C3)C1)C2`, the AC50 under setting [1] is 32.6 µM [falling, partial curve, poor fit]. On the same count and under the same terms, under `COc1ccc(S(=O)(=O)N2CCCC2CNC(=O)C(=O)Nc2ccc(F)cc2)cc1` (configuration not stated) stands 8.2 µM [falling, partial curve].

`Fc1ccc(-c2cn3cc(C(F)(F)F)cc(Cl)c3n2)cc1`: the AC50 under setting [1] is 0.794 µM [rising, full curve, poor fit]. Same read-out and setting: for `Nc1nc(Nc2ccc(Cl)cc2)nc2ccccc12` the value was 16.4 µM [falling, partial curve, poor fit]; for `COCC(C)n1c(C)cc(C(=O)CN2c3cccc4cccc(c34)S2(=O)=O)c1C` (configuration not stated), 20.6 µM [rising, single point]; for `CCCn1c(=O)c(C(=O)Nc2cnccn2)c(O)c2ccccc21`, 32.6 µM [rising, single point]. Regarding `COc1ccc(S(=O)(=O)N(CC(=O)Nc2ccc(C)cc2)c2ccc(C)cc2)cc1OC`, the AC50 by setting is: under setting [1], 4.47 µM [falling, single point]; under setting [2], 4.47 µM [rising, partial curve, poor fit]. In the case of `O=[N+]([O-])c1ccc(Nc2ccc(F)cc2)cc1`, the half-maximal activity concentration (AC50) under setting [1] was 0.1 µM [rising, full curve, poor fit]. On the same count and under the same terms, under `Nc1nc(SCc2ccccc2)[nH]c(=O)c1-c1ccccc1` stands 29.1 µM [falling, single point]; under `COC(c1ccccc1)c1nnc(CCC(=O)N(C)C(C2CC2)C2CC2)o1` (configuration not stated), 8.91 µM [rising, partial curve]. The same measure, in the same setting: for `CC1=NN(C(=O)c2ccccc2C)C(O)(c2ccc(Cl)cc2)C1` (configuration not stated) the value was 15.8 µM [falling, partial curve, poor fit]. On the same count and under the same terms, under `O=C(O)CCc1ccc(-c2ccccc2)n1-c1cccc(C(=O)O)c1` stands 35.5 µM [falling, single point]; under `COCCNC(=O)c1ccccc1NC(=O)C1COc2ccccc2O1` (configuration not stated), 3.55 µM [rising, full curve, poor fit]; under `COc1ccc([C@@H]2[C@@H]3C(=O)N(C(C)(C)C)C(=O)[C@@H]3[C@]3(Cc4ccc(Cl)cc4)C(=O)N(c4ccc(Br)cc4)C(=O)N23)cc1`, 4.47 µM [falling, full curve, poor fit]. For the compound `CCCCC(=O)Nc1cc(NC(=O)CC)ccc1Cl`, under setting [1], the AC50 is 32.6 µM [rising, partial curve, poor fit]. For `Cc1ccccc1NC(=O)C1CCCN(C(=O)Nc2ccc(F)cc2)C1` (configuration not stated), the AC50 under setting [1] is 5.62 µM [rising, partial curve, poor fit]. Same read-out and setting: for `C/C(=N/NC(=O)c1cnccn1)c1ccncc1` the value was 20 µM [falling, single point]; for `CC(=O)NS(=O)(=O)c1ccc(NS(=O)(=O)c2ccccc2[N+](=O)[O-])cc1`, 35.5 µM [rising, single point].

For the compound `Cc1ccc(NC(=O)C(=O)NCC2CCCN2S(=O)(=O)c2cccs2)cc1C` (configuration not stated), the AC50 under setting [2] is 20.6 µM [falling, partial curve, poor fit].

With `CCC(C)NC(=S)Nc1ccc(F)cc1` (configuration not stated), the AC50 under setting [1] is 0.891 µM [rising, full curve, poor fit]. The same measure, in the same setting: under `C/C(=N\Nc1nc(-c2ccccn2)nc2ccccc12)c1ccc(F)cc1` stands 35.5 µM [rising, single point]; under `CC(=O)NC(Cc1ccccc1F)C(=O)NC1CCN(C(=O)Nc2ccc(C)cc2)CC1` (configuration not stated), 20 µM [rising, partial curve, poor fit]; under `COc1ccc(CC(=O)NCC2CCCN(Cc3ccc(F)c(OC)c3)C2)cc1` (configuration not stated), 8.91 µM [rising, partial curve, poor fit]. On the same count and under the same terms, under `COc1cccc(CN2CCNC(=O)C2CC(=O)N(C)C2CCOCC2)c1OC` (configuration not stated) stands 5.62 µM [rising, single point].

By AC50 is commonly meant the concentration giving half of the maximal activity seen.

The values are drawn from PubChem BioAssay AID493014 (National Center for Advancing Translational Sciences (NCATS), 2011).
